Test results from paper PMC8622252.
These are yes or no findings as the source states them, for the method shown. Binding seen in cells or lysates may run through a third protein. Some entries that bind do so weakly or less than the wild type. Where a sequence is shown, tags or fusion partners need not be part of it.

Target: T1, Flag-tagged bovine telomerase reverse transcriptase (bTERT) (bovine) (UniProt Q27ID4)
T1 sequence: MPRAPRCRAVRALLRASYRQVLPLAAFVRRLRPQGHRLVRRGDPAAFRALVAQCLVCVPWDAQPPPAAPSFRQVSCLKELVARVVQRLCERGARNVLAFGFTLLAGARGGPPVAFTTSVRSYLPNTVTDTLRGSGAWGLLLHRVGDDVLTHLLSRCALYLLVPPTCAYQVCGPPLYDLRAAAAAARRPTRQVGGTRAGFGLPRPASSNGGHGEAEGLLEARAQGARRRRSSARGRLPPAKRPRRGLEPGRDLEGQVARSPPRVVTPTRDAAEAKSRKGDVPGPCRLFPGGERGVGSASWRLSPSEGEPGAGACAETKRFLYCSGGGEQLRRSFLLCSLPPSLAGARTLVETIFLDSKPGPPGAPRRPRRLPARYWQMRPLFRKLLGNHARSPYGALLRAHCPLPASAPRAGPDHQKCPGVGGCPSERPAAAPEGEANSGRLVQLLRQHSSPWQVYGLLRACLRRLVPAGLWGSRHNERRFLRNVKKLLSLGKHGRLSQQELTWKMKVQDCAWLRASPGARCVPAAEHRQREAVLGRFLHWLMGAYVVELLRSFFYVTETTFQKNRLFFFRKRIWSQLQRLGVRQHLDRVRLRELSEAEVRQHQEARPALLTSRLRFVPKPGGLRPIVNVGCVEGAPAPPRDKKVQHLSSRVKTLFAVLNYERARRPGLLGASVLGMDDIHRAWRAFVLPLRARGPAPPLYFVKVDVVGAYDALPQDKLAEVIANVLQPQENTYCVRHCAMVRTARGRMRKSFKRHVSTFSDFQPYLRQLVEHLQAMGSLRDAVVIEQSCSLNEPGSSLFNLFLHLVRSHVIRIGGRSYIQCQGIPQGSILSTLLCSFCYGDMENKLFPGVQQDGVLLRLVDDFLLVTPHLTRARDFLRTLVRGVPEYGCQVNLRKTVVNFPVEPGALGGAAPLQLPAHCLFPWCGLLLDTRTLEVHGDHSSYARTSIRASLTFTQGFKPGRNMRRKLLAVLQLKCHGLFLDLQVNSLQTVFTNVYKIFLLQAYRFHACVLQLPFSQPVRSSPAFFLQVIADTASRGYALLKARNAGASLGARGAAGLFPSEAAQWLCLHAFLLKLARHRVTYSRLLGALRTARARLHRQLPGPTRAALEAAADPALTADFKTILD
Test: co-IP; Flag-bTERT and HA-PINX1 transiently co-expressed in HEK-293T cells; whole-cell extracts in IP Lysis Buffer incubated overnight at 4 °C with FLAG mAb or control IgG, captured on Protein A/G agarose, Western blot (legend: Flag-bTERT or HA-PINX1 immunoprecipitated)

B1: HA-tagged PINX1 (protein, UniProt F6PXL9 1-309)
chain: MSMLAERRRKQKWAVDPRNTAWSNDDSKFGQRMLEKMGWSKGKGLGAQEQGATDHIKVQVKNNHLGLGATINNEDNWIAHQDDFNQLLAQLNTCHGQETADSPDNKEKKSFSLEEKSKISKNRVHYMKFTKGKDLSSRSQTDLDCIFGKRQKRTPEDHPSLSATEETDTSTTTTSAFTIHEYFARRMAERKSKAQGMAAGPEASETPVERKRGKKRKKEAKDKNVENHIQPKAKKKRNQVECELGDPRWDENPGAPAEAGEGHVGPLDNQDSPPKPKKRKEKEKGAKQVEAAVDSTLDETPVKKKKGSK
- binding: binds
